Values quoted from earlier work in patent publication US11648247B1, “Compositions and methods for the treatment of presbyopia” (Lenz Therapeutics, Inc., priority 2021, dated 2023).
Some entries share one result that the patent states for a list of compounds.

System: presbyopic subjects
Conditions: conventional formulations, in most cases; cited from earlier work

| Compound | duration of effect |
| --- | --- |
| C[N+](C)(C)CCOC(N)=O [carbachol] | less than or equal to 4 hours |
| CC[C@@H]1C(=O)OC[C@@H]1Cc1cncn1C [pilocarpine] | less than or equal to 4 hours |
